{"source": "patent US8323971B2", "about": "“Differentiation of pluripotent cells into primary germ layer progenitors” (Cambridge Enterprise Limited, priority 2006, dated 2012)", "tested_on": "hESCs", "test": "Effect of PI3 kinase inhibitor on endoderm differentiation (marker expression)", "assay_type": "cell-based, human", "conditions": "3 days, CDM-PVA, added to Activin+FGF2+BMP4", "note": "At least one structure is not confirmed: it was looked up by name or label, or the drawing left a doubt.", "data": [{"molecule": "O=c1cc(N2CCOCC2)oc2c(-c3ccccc3)cccc12", "note": "[LY294002]", "values": [{"measurement": "expression of mesoderm (Brachyury) and endoderm (Sox17, GSC, Mixl1) markers", "result": "increase the expression"}, {"measurement": "expression of pluripotency markers (Oct-4, Nanog, Sox2)", "result": "decreased the expression"}]}]}
